Data on 1 molecule can be found in patent US20250264455A1.

No constants are given. Whether binding was seen depends on the method and setting. Binding calls can cover weak binding; strength is not graded here. Sequences can lack the tags named with a protein.

This test concerns the target GFP-tagged receptor GluCl (Drosophila). The test can be described thus: immunohistochemistry of Drosophila brains.

B1: QtEnc-antiGFPintrabody (protein)
chain: MNKSQLYPDSPLTDQDFNQLDQTVIEAARRQLVGRRFIELYGPLGRGMQSVFNDIFMESHEAKMDFQGSFDTEVESSRRVNYTIPMLYKDFVLYWRDLEQSKALDIPIDFSVAANAARDVAFLEDQMIFHGSKEFDIPGLMNVKGRLTHLIGNWYESGNAFQDIVEARNKLLEMNHNGPYALVLSPELYSLLHRVHKDTNVLEIEHVRELITAGVFQSPVLKGKSGVIVNTGRNNLDLAISEDFETAYLGEEGMNHPFRVYETVVLRIKRPAAICTLIDPEEGGGGSGPGGSGVQLVESGGALVQPGGSLRLSCAASGFPVNRYSMRWYRQAPGKEREWVAGMSSAGDRSSYEDSVKGRFTISRDDARNTVYLQMNSLKPEDTAVYYCNVNVGFEYWGQGTQVTVSS
On to B1, for which the binding entry was “binds”.
